# From PubChem BioAssay AID1487 (National Center for Advancing Translational Sciences (NCATS), 2009)
# “And” between values parts separate entries of the source, which are not always exact repeats. Equal values may be shown once. Some of the results follow. Shown are side measurements of this screen, not its main read-out; they come without a call. The list favours compounds with an active or inconclusive main result. Words in brackets tell the shape of the fitted curve; partial curves, single points and poor fits give uncertain potencies.
# Assay: qHTS Assay for Modulators of Lamin A Splicing
# Settings: HeLa LMNA splicing GFP/RFP minigene ratio, 48 h
# Outline: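 Read-out is the ratio of GFP to DsRed2 object intensity, acquired by 488 nm laser-scanning cytometry on HeLa lamin A-EGFP minigene reporter cells. Compound incubation 48 hrs at 37 °C in Opti-MEM with 2% FBS; DMSO 0.5% final.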
# [1] = measured here: RFP viability control channel
# [2] = measured here: GFP splicing reporter channel
Structure (SMILES),AC50 [1],AC50 [2]
Cc1ccc2[nH]c(=O)c(CN(CCN3CCOCC3)C(=O)Nc3ccc(F)cc3)cc2c1,"12.6 µM [rising, single point]",
CCOC(=O)c1c(NC(=O)c2ccc(S(=O)(=O)N3CCC(C)CC3)cc2)sc2c1CCN(C(C)C)C2,"25.1 µM [falling, partial curve]","20 µM [falling, partial curve, poor fit]"
CCCCCC(=O)Nc1nc(C)c(-c2csc(Nc3cc(OC)ccc3OC)n2)s1,"3.55 µM [falling, full curve, poor fit]","12.6 µM [falling, partial curve, poor fit]"
COc1ccc(C2=NN(C(=O)CSc3cn(C)c4ccccc34)C(c3ccc(OC)cc3)C2)cc1 (configuration not stated),"15.8 µM [rising, single point]",
Fc1cccc(-n2c(-c3ccco3)nc3nc4ccccc4nc32)c1,"2.51 µM [rising, full curve, poor fit]","8.91 µM [rising, partial curve, poor fit]"
Cn1nnnc1SCCNCc1cc(Cl)ccc1OCc1ccccc1,"35.5 µM [rising, single point]",
CCOc1ccc2nc(S(N)(=O)=O)sc2c1,"20 µM [rising, partial curve, poor fit]",
COC(=O)[C@@]1(Cc2ccc(OC)cc2)[C@H]2c3cc(C(=O)N4CCCC4)n(Cc4ccc(C)o4)c3C[C@H]2CN1C(=O)c1ccccc1,"12.6 µM [rising, partial curve]","3.55 µM [rising, single point]"
O=C(CSCc1ccc(Br)cc1)N=Nc1c(O)[nH]c2ccccc12,"35.5 µM [rising, partial curve, poor fit]",
Cc1cccc(CCNC(=O)C2CCC(CNS(=O)(=O)c3c(C)cc(C)cc3C)CC2)c1 (configuration not stated),"0.282 µM [falling, full curve, poor fit]",
O=C(Cc1ccc(NC(=O)N2CCCCc3ccccc32)cc1)NCc1ccccc1Br,"0.0447 µM [falling, full curve, poor fit]","0.0355 µM [falling, full curve, poor fit]"
CCc1ccc(NC(=O)CSc2nc3n[nH]c(C)c3c(=N)n2-c2ccc(C)cc2)cc1,"22.4 µM [falling, partial curve, poor fit]",
CCOc1ccc(C(CC(=O)O)n2cnnn2)cc1OC (configuration not stated),,"1.78 µM [rising, single point]"
Cc1ccc(C(=O)c2cc([N+](=O)[O-])ccc2N2CCCCC2)cc1C,"2.82 µM [rising, partial curve]",
Nc1ccc(N)c(C(=O)O)c1,,"0.158 µM [rising, full curve, poor fit]"
Cc1cccc(NC(=O)c2ccc([N+](=O)[O-])o2)n1,"22.4 µM [falling, partial curve]","12.6 µM [falling, partial curve]"
Cc1cc([N+](=O)[O-])nn1CC(=O)NNC(=S)Nc1ccc(Cl)cc1,"3.55 µM [rising, full curve, poor fit]","2.24 µM [rising, full curve]"
COc1ccc(C(=O)C2CC2c2ccc3c(c2)OCO3)cc1 (configuration not stated),,"35.5 µM [falling, partial curve, poor fit]"
COc1ccc(/C=N/Nc2nc(-c3cccc(S(=O)(=O)N4CCCC4)c3)cs2)cc1OC,"10 µM [rising, partial curve]","5.01 µM [rising, partial curve]"
CCN(CC)C(=O)C1CC(=O)OC1(C)C (configuration not stated),"20 µM [falling, single point]","15.8 µM [falling, single point]"
CC(C)CCNC(=O)c1cccc(S(=O)(=O)N2CCc3ccccc32)c1,"15.8 µM [rising, single point]","17.8 µM [rising, partial curve, poor fit]"
CCOc1ccc(S(=O)(=O)NCCC(=O)NC2=NCCS2)cc1,"31.6 µM [rising, single point]",
O=C(NC12CC3CC(CC(C3)C1)C2)c1ccc(-c2cccc(Cl)c2)o1,"14.1 µM [rising, partial curve]","12.6 µM [rising, partial curve]"
COc1ccc(CC(=O)NCCc2sc(-c3ccc(Cl)cc3)nc2C)cc1OC,"8.91 µM [falling, full curve, poor fit]",
Cc1[nH]c2ccccc2c1C(c1ccccn1)N1CCC(C)CC1 (configuration not stated),,"17.8 µM [falling, partial curve]"
Clc1c(CSc2nc3ccccc3o2)nc2sccn12,"35.5 µM [rising, single point]",
Cc1cccc(-n2c(SCC(N)=O)nc3c(c2=O)C2(CCCC2)Cc2ccccc2-3)c1,"14.1 µM [rising, single point]",

# Part of the list above in another layout.
Structure (SMILES)	AC50 [1]	AC50 [2]
COc1ccc(C2=NN(C(=O)CSc3cn(C)c4ccccc34)C(c3ccc(OC)cc3)C2)cc1 (configuration not stated)	15.8 µM [rising, single point]	
Fc1cccc(-n2c(-c3ccco3)nc3nc4ccccc4nc32)c1	2.51 µM [rising, full curve, poor fit]	8.91 µM [rising, partial curve, poor fit]

# Following part

Structure (SMILES),AC50 [1],AC50 [2]
CCN(CC)c1ccc(/C=N/OCC(=O)N2CCCc3ccccc32)cc1,"2.51 µM [rising, full curve, poor fit]",
CC(C)c1nc(N(C)S(C)(=O)=O)nc(-c2ccc(F)cc2)c1/C=C/C(O)CC(O)CC(=O)O (configuration not stated),,"0.0178 µM [falling, full curve, poor fit]"
Cc1cc(C)c2c(CN3CCN(Cc4ccc5c(c4)OCO5)CC3)cc(=O)oc2c1,"14.1 µM [rising, single point]","1 µM [rising, partial curve]"
O=c1c(Cc2c(F)cccc2Cl)c(O)ccn1C1CC1,"0.01 µM [falling, full curve, poor fit]",
CC(=O)NC(c1ccccc1)c1cc([N+](=O)[O-])c2cccnc2c1O (configuration not stated),"2.82 µM [falling, partial curve, poor fit]","0.631 µM [falling, full curve, poor fit]"
CN=c1scc(C)n1/N=C/c1ccc(O)cc1,"2.24 µM [rising, partial curve, poor fit]",
CC1=C(C(=O)OC(C)C)C(c2cncc(-c3ccc(F)cc3)c2)C(C#N)=C(N)O1 (configuration not stated),,"3.16 µM [rising, partial curve, poor fit]"
CCC(C(=O)N1CCN(c2ccccn2)CC1)n1nc(C)n2c(cc3occc32)c1=O (configuration not stated),"14.1 µM [falling, partial curve, poor fit]",
COc1ccc(NC(=O)C(=O)NCCc2sc(-c3ccc(Cl)cc3)nc2C)cc1,"3.55 µM [falling, partial curve]",
O=C(Nc1ccccc1Cl)OCc1cncs1,,"1.58 µM [rising, partial curve, poor fit]"
CCCCCn1c(NC(=O)c2ccco2)c(S(=O)(=O)c2ccc(C)cc2)c2nc3ccccc3nc21,"25.1 µM [rising, single point]","14.1 µM [rising, partial curve]"
CC(C)(C)n1nc2c(c1NC(=O)COc1ccc3ccccc3c1)CS(=O)(=O)C2,"4.47 µM [falling, single point]",
Cc1ccc(S(=O)(=O)N2CCN(C(C)C(=O)N3CCCc4ccccc43)CC2)cc1 (configuration not stated),"35.5 µM [falling, single point]","35.5 µM [falling, single point]"
CC1=Nc2ccccc2/C1=C/c1sc(=N)n(-c2nccs2)c1O,"35.5 µM [rising, partial curve]",
CN1CCCN(C(c2ccccc2)c2ccc(Cl)cc2)CC1 (configuration not stated),"10 nM [rising, full curve, poor fit] and 44.7 nM [falling, full curve]","10 µM [falling, partial curve, poor fit] and 1.12 µM [falling, partial curve, poor fit]"
Cc1ccc(C(=O)C(C(=O)/C=C/c2ccccc2)=C2SCCCS2)cc1,"35.5 µM [falling, single point]",
C=CCn1c(SCc2c(C)noc2C)nc2sc3c(c2c1=O)CCC(C)C3 (configuration not stated),,"1.12 µM [rising, partial curve, poor fit]"
CCOC(=O)c1sc(SC)nc1N,"0.0126 µM [rising, full curve, poor fit]",
O=C(Cc1ccccc1)N1CCC(c2nc(-c3ccc(F)cc3)no2)CC1,"17.8 µM [rising, partial curve]","0.501 µM [rising, full curve, poor fit]"
COc1ccc([N+](=O)[O-])cc1NC(=O)C(C)OC(=O)/C=C/c1ccco1 (configuration not stated),"20 µM [rising, single point]",
CCOC(=O)CSC1=Nc2ccccc2C2=NC(CC(=O)NCc3ccc4c(c3)OCO4)C(=O)N12 (configuration not stated),"0.0631 µM [rising, full curve, poor fit]",
c1ccc(CC2CCN(Cc3nc(-c4ccccc4)no3)CC2)cc1,"15.8 µM [rising, single point]","11.2 µM [rising, single point]"
Clc1ccc(OCCOCCOc2cccc3cccnc23)c(Br)c1,"17.8 µM [rising, partial curve]",
Cc1ccc(OCC(=O)NNC(=O)C(=O)N2CCCC2)c(C)c1,"0.158 µM [rising, full curve]","0.126 µM [rising, full curve, poor fit]"
Cc1ccc(C)c(NC(=O)Cn2nnc(-c3ccc(N4CCOCC4)cc3)n2)c1,"0.141 µM [rising, full curve, poor fit]",
Cc1ccc(C(=O)Nc2sc(Cc3ccc4c(c3)OCO4)c(C)c2C(N)=O)cc1,"22.4 µM [rising, single point]",
